Laboratory results as given in paper PMC8852700.
No constants are given. Whether binding was seen depends on the method and setting. For some of these results: Binding calls can cover weak binding; strength is not graded here.

By UniProt entry, the sequences of proteins in these tests, tags left out. Where a name states a change or a piece, a line headed by the entry shows the natural chain unless it says otherwise.
UniProt Q54841: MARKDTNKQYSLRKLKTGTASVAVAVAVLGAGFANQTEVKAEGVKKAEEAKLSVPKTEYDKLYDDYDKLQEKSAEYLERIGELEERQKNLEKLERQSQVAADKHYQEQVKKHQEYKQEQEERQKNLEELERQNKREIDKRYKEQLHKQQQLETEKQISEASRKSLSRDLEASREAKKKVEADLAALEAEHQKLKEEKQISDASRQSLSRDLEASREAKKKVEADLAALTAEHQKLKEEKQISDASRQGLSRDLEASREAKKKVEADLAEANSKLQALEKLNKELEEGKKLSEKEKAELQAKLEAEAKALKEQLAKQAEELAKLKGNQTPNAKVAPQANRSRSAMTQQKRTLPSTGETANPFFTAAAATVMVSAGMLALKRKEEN
UniProt P02671: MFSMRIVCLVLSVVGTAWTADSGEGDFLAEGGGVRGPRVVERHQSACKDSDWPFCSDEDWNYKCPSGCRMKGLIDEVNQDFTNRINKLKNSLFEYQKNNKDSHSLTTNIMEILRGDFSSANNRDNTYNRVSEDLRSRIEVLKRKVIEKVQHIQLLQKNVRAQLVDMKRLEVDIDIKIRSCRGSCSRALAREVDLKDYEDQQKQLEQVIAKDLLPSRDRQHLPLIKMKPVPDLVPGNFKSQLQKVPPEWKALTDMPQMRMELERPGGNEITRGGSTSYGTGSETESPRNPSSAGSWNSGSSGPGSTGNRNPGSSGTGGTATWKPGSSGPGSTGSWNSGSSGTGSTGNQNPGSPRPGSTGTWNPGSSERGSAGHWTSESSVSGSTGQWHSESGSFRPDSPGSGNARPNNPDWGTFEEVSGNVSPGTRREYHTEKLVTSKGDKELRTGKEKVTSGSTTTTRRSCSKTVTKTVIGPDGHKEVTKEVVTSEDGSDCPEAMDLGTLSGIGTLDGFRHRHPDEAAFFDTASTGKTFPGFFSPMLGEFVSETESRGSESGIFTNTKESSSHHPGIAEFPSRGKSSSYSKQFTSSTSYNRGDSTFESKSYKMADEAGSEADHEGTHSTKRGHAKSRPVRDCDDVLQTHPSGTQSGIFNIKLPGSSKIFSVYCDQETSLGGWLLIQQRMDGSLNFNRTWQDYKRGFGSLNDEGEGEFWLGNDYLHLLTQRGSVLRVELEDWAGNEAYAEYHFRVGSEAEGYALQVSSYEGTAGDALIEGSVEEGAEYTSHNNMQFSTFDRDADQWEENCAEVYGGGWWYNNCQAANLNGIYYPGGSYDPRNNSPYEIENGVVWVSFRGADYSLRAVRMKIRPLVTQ

Assays:
Assay in all cases: far-Western, overlay or dot blot; M proteins (25 ug/mL) run on a gel and transferred to a membrane, blocked with 5% BSA in PBST; probed with human fibrinogen (250 ug/mL) for 1 h at 37 C; detected with FITC-labeled antifibrinogen; both purified
[1] = molecular target: M3 protein (Streptococcus pyogenes) (UniProt Q54841)
[2] = molecular target: M1 protein (Streptococcus pyogenes) (UniProt Q99XV0)
[3] = molecular target: M28 protein (Streptococcus pyogenes) (UniProt Q54841)
[4] = molecular target: M89 protein (Streptococcus pyogenes) (UniProt Q54841)

Which results are given for “human fibrinogen (from UniProt P02671 36-866; P02675 45-491; P02679 27-453)”?
binding [1]: binds; binding [2]: binds; binding [3]: no binding (tested: 250 ug/mL fibrinogen); binding [4]: no binding (tested: 250 ug/mL fibrinogen)
